According to patent US8748104:
The exact form of at least one protein or probe is not confirmed. No signal at the amounts used counts as a negative.

Biological target: serum albumin (Homo sapiens) (UniProt P02768)
Assay: binding assay
Conditions: negative control in Luminex bead assay; room temperature, PBS washes; label: biotin; single-stranded DNA

| Sequence | binding result |
| --- | --- |
| GGGATGGGGTGGGTGGCCAGCGATT [SEQ ID NO: 1 aptamer] | no binding |
| TTAGGGGTGGTGTGGTTGGCAATTC [SEQ ID NO: 2 aptamer] | no binding |
